Test [1] addresses T1, IFN regulatory factor 1 (IRF1), wild type (human) (UniProt P10914).
T1 sequence: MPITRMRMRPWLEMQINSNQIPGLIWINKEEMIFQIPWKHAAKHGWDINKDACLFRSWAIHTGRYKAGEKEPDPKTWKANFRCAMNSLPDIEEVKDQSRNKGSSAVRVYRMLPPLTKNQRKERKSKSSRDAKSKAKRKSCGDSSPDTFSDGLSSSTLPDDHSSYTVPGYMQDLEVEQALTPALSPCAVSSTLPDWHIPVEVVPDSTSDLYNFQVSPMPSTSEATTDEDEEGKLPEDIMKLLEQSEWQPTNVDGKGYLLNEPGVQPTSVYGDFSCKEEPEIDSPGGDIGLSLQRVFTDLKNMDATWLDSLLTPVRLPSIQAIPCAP
As to the kind of experiment: co-IP; HEK293T cells in a 10-cm dish transfected with IRF1 and CHIP plasmids, with or without XAF1, for 24 h; lysis in 50 mM Tris-HCl pH 7.5, 150 mM NaCl, 1 mM EDTA, 1% Triton X-100; immunoblot. In general terms: A western blot detects proteins with antibodies after separation by electrophoresis.

Amino acid sequences for entries named in this document (tags omitted).
UniProt Q9UNE7: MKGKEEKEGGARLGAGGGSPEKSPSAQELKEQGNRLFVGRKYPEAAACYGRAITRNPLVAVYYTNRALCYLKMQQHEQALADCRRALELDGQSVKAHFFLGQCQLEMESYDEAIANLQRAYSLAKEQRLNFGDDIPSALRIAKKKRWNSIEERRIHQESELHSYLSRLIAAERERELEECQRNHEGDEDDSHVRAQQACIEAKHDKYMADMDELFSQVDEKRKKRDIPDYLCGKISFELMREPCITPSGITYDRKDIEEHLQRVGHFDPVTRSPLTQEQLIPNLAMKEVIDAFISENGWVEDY

For test [2], the target named is T2, XIAP-associated factor 1 (XAF1), Flag-tagged (human) (UniProt Q6GPH4).
T2 sequence: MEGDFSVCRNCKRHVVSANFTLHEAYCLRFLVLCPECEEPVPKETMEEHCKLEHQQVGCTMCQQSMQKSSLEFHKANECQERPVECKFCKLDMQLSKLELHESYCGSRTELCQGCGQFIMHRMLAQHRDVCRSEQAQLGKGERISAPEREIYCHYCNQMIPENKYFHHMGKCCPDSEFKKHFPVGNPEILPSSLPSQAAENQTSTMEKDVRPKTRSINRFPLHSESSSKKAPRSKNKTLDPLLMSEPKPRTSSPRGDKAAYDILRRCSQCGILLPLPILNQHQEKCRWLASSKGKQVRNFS
As to the kind of experiment: co-IP; HEK293T cells cotransfected with XAF1 and IRF1 (WT or truncated mutants) plasmids for 24 h; lysis in 50 mM Tris-HCl pH 7.5, 150 mM NaCl, 1 mM EDTA, 1% Triton X-100; FLAG M2 Affinity Gel, anti-HA-Agarose or antibodies plus protein A/G beads overnight; immunoblot.

Results are given in words; binding and its absence hold for the method and conditions named. Binding seen in cells or lysates may run through a third protein. Some binding calls cover weakened binding; strength is not graded here. For some assays here: Tags and fused reporters may be left off the sequences shown.

“CHIP (E3 ligase) (from UniProt Q9UNE7 1-303) (enzyme)”: the binding entry in test [1] was “binds”.

B1: IFN regulatory factor 1 (IRF1), wild type (protein, UniProt P10914 1-325)
chain: T1 sequence
Turning to B1, the binding entry in test [2] is given as “binds”.

For the origin of these results see publication PMC9472610.
